Measurements reported in PubChem BioAssay AID1259308 (NCATS, 2017)
This is an unselected part of about 59,000 reagents. About 1,510 of them (2.6%) were called active. 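Calls use total luciferase alone and ignore viability, so some active siRNAs may act by altering cell number.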 Reagents against one gene are numbered here. Further read-outs or replicates are left out here. No sequences are given here.

Assay: 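Candidate targets for better recombinant protein yield in mammalian cells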 (primary screen)
Cell system: human HEK293 embryonic kidney cells stably expressing firefly luciferase (HEK-CMV-Luc2-Hygro)
Reagent: single siRNA against human genes, 0.8 pmol siRNA per well
Timing: 72 h
Measurement: 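Reporter luminescence and viable-cell signal on separate replicate plates, given as percent of non-targeting control and median/MAD z-scores, plus per-cell luciferase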
Direction: total luciferase, z-score and total luciferase, % of control: higher = more reporter protein produced
Hit rule: 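Active when the median/MAD z-score for overall luciferase is greater than 3; a gene was taken forward for validation with new siRNAs if at least two of its three siRNAs passed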
Meaning of the calls: active = raised luciferase; inactive = no rise

After knock-down of ETS2-AS1 (ETS2 antisense RNA 1) #1, the screen gave total luciferase, z-score 0.679; total luciferase, % of control 95.4; inactive.
Silencing of ETS2-AS1 (ETS2 antisense RNA 1) #2 resulted in: total luciferase, z-score -2.48; total luciferase, % of control 32.6; inactive.
Against ETS2-AS1 (ETS2 antisense RNA 1) #3, the values are total luciferase, z-score -1.05; total luciferase, % of control 61.1; inactive.
Knock-down of ZNF410 (zinc finger protein 410) #1 gave: total luciferase, z-score -0.163; total luciferase, % of control 78.6; inactive.
Knock-down of ZNF410 (zinc finger protein 410) #2 resulted in: total luciferase, z-score -0.414; total luciferase, % of control 73.7; inactive.
Against ZNF410 (zinc finger protein 410) #3 the deposit lists total luciferase, z-score 1.71; total luciferase, % of control 116; inactive.
After knock-down of LOC401478 #1, the record shows total luciferase, z-score 0.163; total luciferase, % of control 85.1; inactive.
After knock-down of LOC401478 #2 the results were total luciferase, z-score -0.251; total luciferase, % of control 76.9; inactive.
Knock-down of LOC401478 #3 came out at: total luciferase, z-score 2.71; total luciferase, % of control 136; inactive.
With knock-down of TEX12 (testis expressed 12) #1 the results were total luciferase, z-score 0.392; total luciferase, % of control 89.7; inactive.
Knock-down of TEX12 (testis expressed 12) #2 came out at: total luciferase, z-score -0.302; total luciferase, % of control 75.9; inactive.
After knock-down of TEX12 (testis expressed 12) #3, the record shows total luciferase, z-score -1.03; total luciferase, % of control 61.4; inactive.
Knock-down of ACOT6 (acyl-CoA thioesterase 6) #1 gave: total luciferase, z-score -0.536; total luciferase, % of control 71.2; inactive.
Knock-down of ACOT6 (acyl-CoA thioesterase 6) #2 came out at: total luciferase, z-score 0.768; total luciferase, % of control 97.2; inactive.
Silencing of ACOT6 (acyl-CoA thioesterase 6) #3 resulted in: total luciferase, z-score 0.249; total luciferase, % of control 86.8; inactive.
For SPOPLP2 (SPOPL pseudogene 2) #1 the deposit lists total luciferase, z-score -1.64; total luciferase, % of control 49.2; inactive.
SPOPLP2 (SPOPL pseudogene 2) #2 scored total luciferase, z-score -1.73; total luciferase, % of control 47.5; inactive.
After knock-down of SPOPLP2 (SPOPL pseudogene 2) #3, the screen gave total luciferase, z-score -0.821; total luciferase, % of control 65.6; inactive.
With knock-down of UNC93A (unc-93 homolog A) #1, the screen gave total luciferase, z-score 1.64; total luciferase, % of control 115; inactive.
After knock-down of UNC93A (unc-93 homolog A) #2 the results were total luciferase, z-score 1.04; total luciferase, % of control 103; inactive.
Against UNC93A (unc-93 homolog A) #3, the values are total luciferase, z-score 0.158; total luciferase, % of control 85; inactive.
Depletion of FAHD1 (FAH domain containing oxaloacetate decarboxylase 1) #1 came out at: total luciferase, z-score -0.123; total luciferase, % of control 79.4; inactive.
After knock-down of FAHD1 (FAH domain containing oxaloacetate decarboxylase 1) #2, the screen gave total luciferase, z-score -1.17; total luciferase, % of control 58.7; inactive.
Silencing of FAHD1 (FAH domain containing oxaloacetate decarboxylase 1) #3 gave: total luciferase, z-score 1.7; total luciferase, % of control 116; inactive.
For H3C11 (H3 clustered histone 11) #1, the values are total luciferase, z-score -0.818; total luciferase, % of control 65.6; inactive.
H3C11 (H3 clustered histone 11) #2 gave total luciferase, z-score 1.59; total luciferase, % of control 114; inactive.
H3C11 (H3 clustered histone 11) #3 scored total luciferase, z-score -0.0945; total luciferase, % of control 80; inactive.
With knock-down of DLX3 (distal-less homeobox 3) #1, the screen gave total luciferase, z-score -0.0903; total luciferase, % of control 80.1; inactive.
Against DLX3 (distal-less homeobox 3) #2, the values are total luciferase, z-score -0.766; total luciferase, % of control 66.7; inactive.
For DLX3 (distal-less homeobox 3) #3 the deposit lists total luciferase, z-score 0.574; total luciferase, % of control 93.3; inactive.
Against ACAD11 (acyl-CoA dehydrogenase family member 11) #1, the entry reads total luciferase, z-score 1.19; total luciferase, % of control 106; inactive.
Against ACAD11 (acyl-CoA dehydrogenase family member 11) #2, the values are total luciferase, z-score -0.0222; total luciferase, % of control 81.4; inactive.
With knock-down of ACAD11 (acyl-CoA dehydrogenase family member 11) #3, the screen gave total luciferase, z-score -0.536; total luciferase, % of control 71.2; inactive.
After knock-down of EPS8 (EGFR pathway substrate 8, signaling adaptor) #1, the record shows total luciferase, z-score 0.679; total luciferase, % of control 95.4; inactive.
Against EPS8 (EGFR pathway substrate 8, signaling adaptor) #2, the values are total luciferase, z-score 1.57; total luciferase, % of control 113; inactive.
Depletion of EPS8 (EGFR pathway substrate 8, signaling adaptor) #3 gave: total luciferase, z-score 1.65; total luciferase, % of control 115; inactive.
ZNF551 (zinc finger protein 551) #1 scored total luciferase, z-score 0.302; total luciferase, % of control 87.9; inactive.
Against ZNF551 (zinc finger protein 551) #2 the deposit lists total luciferase, z-score -1.06; total luciferase, % of control 60.7; inactive.
ZNF551 (zinc finger protein 551) #3 showed total luciferase, z-score -0.726; total luciferase, % of control 67.4; inactive.
Knock-down of ENGASE (endo-beta-N-acetylglucosaminidase) #1 came out at: total luciferase, z-score 0.1; total luciferase, % of control 83.9; inactive.
Depletion of ENGASE (endo-beta-N-acetylglucosaminidase) #2 gave: total luciferase, z-score 0.401; total luciferase, % of control 89.9; inactive.
Silencing of ENGASE (endo-beta-N-acetylglucosaminidase) #3 gave: total luciferase, z-score 0.32; total luciferase, % of control 88.3; inactive.

4 successive entries already listed, quoted:
SPOPLP2 (SPOPL pseudogene 2) #3: total luciferase, z-score = -0.821; total luciferase, % of control = 65.6; Call = inactive
UNC93A (unc-93 homolog A) #1: total luciferase, z-score = 1.64; total luciferase, % of control = 115; Call = inactive
UNC93A (unc-93 homolog A) #2: total luciferase, z-score = 1.04; total luciferase, % of control = 103; Call = inactive
UNC93A (unc-93 homolog A) #3: total luciferase, z-score = 0.158; total luciferase, % of control = 85; Call = inactive
